Measurements from paper doi:10.1101/308841.
Results are given in words; binding and its absence hold for the method and conditions named. In cells and extracts the contact can be indirect. Some binding calls cover weakened binding; strength is not graded here.

Chains of the proteins cited; added tags and fusions are not shown.
UniProt P35222: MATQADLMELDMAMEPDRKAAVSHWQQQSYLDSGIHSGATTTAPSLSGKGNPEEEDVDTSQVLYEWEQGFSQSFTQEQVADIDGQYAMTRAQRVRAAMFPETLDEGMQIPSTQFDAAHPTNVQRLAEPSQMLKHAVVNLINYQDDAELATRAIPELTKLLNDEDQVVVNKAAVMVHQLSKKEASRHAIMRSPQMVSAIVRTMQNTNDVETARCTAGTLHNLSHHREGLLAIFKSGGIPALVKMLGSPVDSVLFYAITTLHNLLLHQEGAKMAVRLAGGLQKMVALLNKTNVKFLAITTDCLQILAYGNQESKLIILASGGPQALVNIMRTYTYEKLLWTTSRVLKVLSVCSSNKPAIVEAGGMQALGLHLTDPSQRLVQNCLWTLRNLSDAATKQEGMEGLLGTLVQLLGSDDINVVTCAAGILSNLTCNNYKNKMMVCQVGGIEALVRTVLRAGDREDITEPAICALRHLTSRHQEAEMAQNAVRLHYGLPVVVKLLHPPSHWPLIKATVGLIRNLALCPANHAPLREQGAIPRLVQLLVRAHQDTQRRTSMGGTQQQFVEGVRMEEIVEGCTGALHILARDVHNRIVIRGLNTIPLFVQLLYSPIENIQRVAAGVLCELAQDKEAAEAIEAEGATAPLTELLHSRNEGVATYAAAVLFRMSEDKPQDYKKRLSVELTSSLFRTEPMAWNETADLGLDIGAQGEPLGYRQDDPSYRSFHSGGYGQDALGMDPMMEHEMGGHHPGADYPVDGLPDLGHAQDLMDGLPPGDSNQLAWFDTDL
UniProt O15169: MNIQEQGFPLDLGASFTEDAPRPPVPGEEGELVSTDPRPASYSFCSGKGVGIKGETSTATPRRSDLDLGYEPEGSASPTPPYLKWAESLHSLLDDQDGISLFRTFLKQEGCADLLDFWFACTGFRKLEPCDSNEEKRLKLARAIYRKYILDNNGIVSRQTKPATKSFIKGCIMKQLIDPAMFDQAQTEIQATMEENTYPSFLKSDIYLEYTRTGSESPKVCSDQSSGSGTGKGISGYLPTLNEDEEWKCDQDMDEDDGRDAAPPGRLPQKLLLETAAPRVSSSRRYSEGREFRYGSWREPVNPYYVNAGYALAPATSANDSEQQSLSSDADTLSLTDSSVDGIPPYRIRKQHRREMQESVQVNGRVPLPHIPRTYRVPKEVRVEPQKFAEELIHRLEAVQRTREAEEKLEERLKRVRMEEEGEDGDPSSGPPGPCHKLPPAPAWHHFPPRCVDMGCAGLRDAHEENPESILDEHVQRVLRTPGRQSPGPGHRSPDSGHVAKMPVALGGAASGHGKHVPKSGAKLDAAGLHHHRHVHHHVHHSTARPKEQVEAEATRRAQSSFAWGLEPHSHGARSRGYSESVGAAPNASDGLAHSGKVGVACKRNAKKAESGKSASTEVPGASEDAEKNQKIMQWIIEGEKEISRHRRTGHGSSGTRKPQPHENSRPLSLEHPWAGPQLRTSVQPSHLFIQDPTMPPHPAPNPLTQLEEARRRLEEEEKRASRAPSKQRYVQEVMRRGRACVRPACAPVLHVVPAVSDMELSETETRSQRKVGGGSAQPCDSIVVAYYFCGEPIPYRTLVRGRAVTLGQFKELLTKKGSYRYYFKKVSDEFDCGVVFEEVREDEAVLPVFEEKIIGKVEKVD

Target: β-catenin, endogenous (human (endogenous in HCT-15, COLO205, HEK293T)) (UniProt P35222)
Experiment: co-IP

binding: binds
Substance: AXIN1, endogenous (HEK293T) (from UniProt O15169 1-862)
